This note sets out measurements from PubChem BioAssay AID2685 (National Center for Advancing Translational Sciences (NCATS), 2010).

This is one part of the list. Further columns of the screen follow, without active or inactive calls. Most of these compounds were active or inconclusive in the main read-out, so they are no random draw. Words in brackets tell the shape of the fitted curve; partial curves, single points and poor fits give uncertain potencies.

A short description of the test: qHTS Assay for Lipid Storage Modulators in Drosophila S3 Cells.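 As to cell number change: cells counted by Cell Tracker Red CMTPX staining in the red channel.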 The settings on record: BODIPY lipid droplet fluorescence, 18-24 h; for cell number change: measured here: cell count max response, cells fed with added oleic acid. A digest of the protocol: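 Laser-scanning cytometry quantifies lipid droplet accumulation (500–530 nm total intensity; droplet/cell object ratio) in oleic acid-fed (400 uM added) Drosophila S3 cells treated with a concentration series. 20 uM Triacsin C defined 100% inhibition.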
In general terms: Quantitative high-throughput screening tests each substance at several concentrations.

[1] abbreviates: measured here: cell number channel AC50, cells fed with added oleic acid.
Setting [2] is: measured here: lipid fluorescence (Fed channel) AC50, cells fed with added oleic acid.

With `COc1ccc2oc(C(=O)OCC(=O)c3ccc4c(c3)OCCO4)c(C)c2c1`, the cell number change stood at 9.75%.
As a reminder, the AC50 is the midpoint of the concentration-response curve, whichever way the signal moves. The low end stands for greater potency, the high end for weaker potency. As to `Cc1cc(N2C(=O)c3ccc(C(=O)Nc4ccc(O)cc4C(=O)O)cc3C2=O)no1`, the cell number change was 54.1%. Besides, the AC50 under setting [1] was 29.1 µM [rising, single point].
In the case of `O=C(NNc1cc(Cl)cc(Cl)c1)C1CCC1`, the cell number change was -12.6%. Moreover, under setting [1], the AC50 is 0.00517 µM [falling, full curve, poor fit].
Regarding `CN(Cc1ccccc1)C(=O)Cn1c(=O)oc2cc(S(=O)(=O)NCc3ccccc3)ccc21`, the cell number change came out at 94.5%. For the same molecule, under setting [1], the AC50 was 2.31 µM [rising, full curve]. Under setting [2], the AC50 was 0.517 µM [rising, full curve].
Take `CCn1cnc2cc(NCc3ccc(OC)cc3)ccc21`: the cell number change is -11.2%. The AC50 under setting [2] is 2.06 µM [rising, partial curve].
In the case of `COc1cccc(C(=O)N2CCN(C3CCCCC3)CC2)c1`, the cell number change was -9.82%.
Turning to `O=C(CSc1ncnc2nc[nH]c12)N1CCOCC1`, the cell number change is 0.844%. Besides, the AC50 under setting [2] was 3.26 µM [falling, single point].
As to `Nc1cc(S(=O)(=O)N2CCOCC2)ccc1Oc1ccc(F)cc1`, the cell number change amounted to 38.4%. Under setting [1], the AC50 is 29.1 µM [rising, single point].
Consider `COc1ccccc1NC(=O)N1CCN(c2ccccn2)CC1`, for which the cell number change was found to be 38.4%. Also, the AC50 under setting [1] was 2.59 µM [rising, full curve]. The AC50 under setting [2] was 4.61 µM [rising, full curve].
On to `CCOc1ccc(NS(=O)(=O)c2ccc(C(=O)NCC(c3ccc(OC)cc3)N3CCOCC3)cc2)cc1` (centres undefined), for which the cell number change was -84.8%. Moreover, the AC50 under setting [1] was 29.1 µM [falling, single point]. For the same molecule, under setting [2], the AC50 is 0.461 µM [falling, full curve, poor fit].
`CCOc1ccc(-c2nc(S(=O)(=O)c3ccccc3)c(N3CCOCC3)o2)cc1`: the cell number change stood at 30.6%. Moreover, the AC50 under setting [1] was 2.31 µM [rising, full curve, poor fit].
In the case of `Cc1ccc(NC(=O)c2sc3ncnc(N4CCN(c5ccccn5)CC4)c3c2C)c(C)c1`, the cell number change is 11.7%.
Consider `Cc1cccc(N2C(=O)c3cccc4c(N)ccc(c34)C2=O)c1`, for which the cell number change was -97.4%. Further, the AC50 under setting [1] was 18.4 µM [falling, single point]. Under setting [2], the AC50 is 29.1 µM [falling, single point].
Regarding `C(=C\c1ccccc1)/CSc1nnc(-c2ccccc2)n1Cc1ccco1`, the cell number change is -12.8%. In addition, the AC50 under setting [2] is 23.1 µM [falling, single point].
As for `CSc1ccccc1NC(=O)c1c(Br)cnn1C`, the cell number change was determined as 95.2%. Besides, the AC50 under setting [1] is 25.9 µM [rising, single point]. Further, the AC50 under setting [2] is 25.9 µM [rising, single point].
With `Cc1cccc(NC(=O)CCCN2C(=O)c3cccc4cccc(c34)C2=O)c1`, the cell number change was 33.3%.
Still for that read-out and setting: in the case of `CC(=O)Nc1ccc(S(=O)(=O)N2CCN=C2SCc2ccc(C)cc2)cc1` it was 6.71%.
